PubChem BioAssay AID652248 | Drosophila RNAi Screening Center | 2013

Purpose: 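Kinases and phosphatases whose loss pushes fly blood cells toward elongated shapes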 (primary screen)
Cells: cultured Drosophila hemocytes
Knock-down reagent: long dsRNA against Drosophila genes
Measurement: 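Automated microscopy of stained actin, tubulin and nuclei; single-cell shape measures assigned to five reference shape types, giving a score per dsRNA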
Scale: elongated score: higher = more elongated bipolar cells; normal round score: higher = more normal rounded cells; teardrop score: higher = more small teardrop-shaped cells
Active means: 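a gene counts as active when its knock-down clearly increases the elongated score; a low similarity score was then used to rank the actives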
This is an unselected part of 863 reagents tested. Of all reagents, 32 (3.7%) are marked active. 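Calls also used reproducibility and a similarity ranking whose scores are not deposited; many active genes show only modest elongated scores.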 Reagents against one gene are numbered here. A plus sign joins genes that one reagent is predicted to hit. Not stated in the record: the amount of reagent, the time to read-out.

| Gene | dsRNA no. | elongated score, rep 1 | elongated score, rep 2 | normal round score, rep 1 | teardrop score, rep 1 | Outcome |
| --- | --- | --- | --- | --- | --- | --- |
| Snrk (SNF related kinase) | 1 | 0.28 | – | -0.09 | -0.58 | inactive |
| Snrk (SNF related kinase) | 2 | 1.76 | – | -1.19 | 0.97 | inactive |
| Akap200 (A kinase anchor protein 200) | 1 | -0.12 | – | 0.84 | -1.1 | inactive |
| Pi3K92E (Phosphatidylinositol 3-kinase 92E) | 1 | 0.34 | – | -0.04 | 0.07 | inactive |
| CG4041 | 1 | -0.53 | – | 0.6 | -0.29 | inactive |
| CG4041 | 2 | 0 | – | -1.02 | 0.27 | inactive |
| CG17746 | 1 | 0.51 | – | -0.03 | -0.23 | inactive |
| CG17746 | 2 | 0.45 | – | -0.66 | 0.12 | inactive |
| Cdk8 (Cyclin-dependent kinase 8) | 1 | -0.53 | – | -0.33 | 0.82 | inactive |
| Cdk8 (Cyclin-dependent kinase 8) | 2 | -0.02 | – | 0.08 | -0.51 | inactive |
| Adck1 (aarF domain containing kinase 1) | 1 | -0.07 | – | -0.07 | -0.32 | inactive |
| Alp11 (Alkaline phosphatase 11) | 1 | -0.53 | – | -0.06 | -0.55 | inactive |
| mts (microtubule star) | 1 | 0.34 | – | -1.5 | 0.85 | inactive |
| I-2 (Inhibitor-2) | 1 | -0.53 | – | 0.77 | -0.52 | inactive |
| I-2 (Inhibitor-2) | 2 | -0.2 | – | -0.32 | -1.09 | inactive |
| Mipp1 (Multiple inositol polyphosphate phosphatase 1) | 1 | 0.32 | – | 0.16 | -0.1 | inactive |
| fs(1)h (female sterile (1) homeotic) | 1 | 2.73 | -0.24 | -1.54 | -0.46 | inactive |
| fs(1)h (female sterile (1) homeotic) | 2 | 2.57 | – | -4.11 | 3.86 | inactive |
| PIP5K59B (Phosphatidylinositol 4-phosphate 5-kinase 59B) | 1 | -0.53 | – | -0.82 | 1.74 | inactive |
| Pdk1 (Phosphoinositide-dependent kinase 1) | 1 | -0.23 | – | -0.27 | 0.52 | inactive |
| Pdk1 (Phosphoinositide-dependent kinase 1) | 2 | 3.15 | – | -0.97 | 0.04 | inactive |
| bsd (back seat driver) | 1 | -0.53 | – | 0.14 | 0.38 | inactive |
| png (pan gu) | 1 | 0.32 | – | -1.32 | 1.31 | inactive |
| png (pan gu) | 2 | 0.14 | – | -2.73 | 1.89 | inactive |
| CG16903 | 1 | 11.6 | – | -3.09 | -0.55 | inactive |
| Pka-C3 (Protein kinase, cAMP-dependent, catalytic subunit 3) | 1 | -0.39 | – | 0.82 | -0.89 | inactive |
| Pka-C3 (Protein kinase, cAMP-dependent, catalytic subunit 3) | 2 | -0.53 | – | 0.96 | -0.8 | inactive |
| Pka-C3 (Protein kinase, cAMP-dependent, catalytic subunit 3) | 3 | -0.38 | – | -1.49 | 1.26 | inactive |
| dome (domeless) | 1 | 0.45 | – | -1.04 | 0.75 | inactive |
| p38a (p38a MAP kinase) | 1 | -0.53 | – | -0.44 | -1.41 | inactive |
| PyK (Pyruvate kinase) | 1 | -0.34 | – | 0.14 | 0.29 | inactive |
| PyK (Pyruvate kinase) | 2 | 0.05 | – | -0.4 | -0.1 | inactive |
| Pkc53E (Protein C kinase 53E) | 1 | 0.65 | – | -0.26 | -0.34 | inactive |
| Cep97 (Centrosomal protein 97kDa) | 1 | -0.27 | – | -0.51 | 0.59 | inactive |
| mTor (mechanistic Target of rapamycin) | 1 | 0.35 | – | -0.46 | 0.89 | inactive |
| Mipp2 (Multiple inositol polyphosphate phosphatase 2) | 1 | 2.12 | -0.53 | -0.22 | -0.56 | inactive |
| Ptpmeg (Protein tyrosine phosphatase Meg) | 1 | -0.53 | – | 0.23 | -0.24 | inactive |
| Ptpmeg (Protein tyrosine phosphatase Meg) | 2 | -0.04 | – | -1.1 | 1.7 | inactive |
| Cdk12 (Cyclin-dependent kinase 12) | 1 | -0.14 | – | -1.85 | 0.45 | inactive |
| Cdk12 (Cyclin-dependent kinase 12) | 2 | 1.52 | – | -6.52 | 6.81 | inactive |
| Cdk12 (Cyclin-dependent kinase 12) | 3 | 3 | – | -2.58 | 1.02 | inactive |

Quoted from the entries so far for reference:
| Gene | dsRNA no. | elongated score, rep 1 | elongated score, rep 2 | normal round score, rep 1 | teardrop score, rep 1 | Outcome |
| --- | --- | --- | --- | --- | --- | --- |
| png (pan gu) | 1 | 0.32 | – | -1.32 | 1.31 | inactive |
| png (pan gu) | 2 | 0.14 | – | -2.73 | 1.89 | inactive |
| CG16903 | 1 | 11.6 | – | -3.09 | -0.55 | inactive |
| Pka-C3 (Protein kinase, cAMP-dependent, catalytic subunit 3) | 1 | -0.39 | – | 0.82 | -0.89 | inactive |
| Pka-C3 (Protein kinase, cAMP-dependent, catalytic subunit 3) | 2 | -0.53 | – | 0.96 | -0.8 | inactive |

Next records:
| Gene | dsRNA no. | elongated score, rep 1 | elongated score, rep 2 | normal round score, rep 1 | teardrop score, rep 1 | Outcome |
| --- | --- | --- | --- | --- | --- | --- |
| rg (rugose) | 1 | 0.08 | -0.53 | -0.35 | 0.6 | inactive |
| rg (rugose) | 2 | 3.47 | – | -2.45 | 1.45 | inactive |
| Cdk9 (Cyclin-dependent kinase 9) | 1 | -0.53 | – | -2.57 | 3.41 | inactive |
| Ptp69D (Protein tyrosine phosphatase 69D) | 1 | -0.53 | – | 0.18 | -0.44 | inactive |
| Pfrx (6-phosphofructo-2-kinase) | 1 | -0.15 | – | 0.04 | -0.09 | inactive |
| Pfrx (6-phosphofructo-2-kinase) | 2 | 0.8 | – | -0.6 | 0.55 | inactive |
| Pfrx (6-phosphofructo-2-kinase) | 3 | -0.39 | – | 0.12 | -1 | inactive |
| aay (astray) | 1 | -0.39 | – | -0.09 | 0.03 | inactive |
| CG8509 | 1 | 0.78 | – | -3.51 | 4.54 | inactive |
| KP78a + KP78b | 1 | 0.38 | – | 0.25 | -0.41 | inactive |
| KP78a + KP78b | 2 | -0.53 | – | 0.74 | -0.81 | inactive |
| KP78a + KP78b | 3 | -0.53 | – | -2.46 | 3.61 | inactive |
| KP78a + KP78b | 4 | 0.31 | – | -0.09 | -0.03 | inactive |
| KP78a + KP78b | 5 | 2.8 | – | -1.28 | 0.59 | inactive |
| Atg1 (Autophagy-related 1) | 1 | 0.04 | -0.34 | 0.09 | -0.03 | inactive |
| Atg1 (Autophagy-related 1) | 2 | -0.53 | -0.53 | -0.67 | 0.5 | inactive |
| Pink1 (PTEN-induced putative kinase 1) | 1 | -0.53 | 0.25 | -0.48 | 0.65 | inactive |
| CG6656 | 1 | -0.53 | – | 0.99 | -1.13 | inactive |
| Pten (Phosphatase and tensin homolog) | 1 | 1.17 | – | -2.62 | 2.86 | active |
| Pten (Phosphatase and tensin homolog) | 2 | 7.75 | – | -4.07 | 1.52 | active |
| CG5790 | 1 | 0.6 | – | -1.53 | 1.92 | inactive |
| CG5790 | 2 | -0.14 | – | 0.58 | -0.58 | inactive |
| Cdc2rk (Cdc2-related kinase) | 1 | -0.26 | – | 0.57 | -0.48 | inactive |
| Cdc2rk (Cdc2-related kinase) | 2 | 5.13 | – | -2.51 | 0.88 | active |
| SAK (Sak kinase) | 1 | 2.31 | – | -4.65 | 4.85 | inactive |
| SAK (Sak kinase) | 2 | -0.53 | – | -1.44 | 0.58 | inactive |
| SAK (Sak kinase) | 3 | 4.31 | – | -1.26 | -0.38 | inactive |
